Results from PubChem BioAssay AID2662 (National Center for Advancing Translational Sciences (NCATS), 2010).
Among all 290,000 compounds or so, about 110 (0.038%) were called active. This list was built around the results that the source calls inconclusive (neither active nor inactive); the mix of calls is not that of the screen. Calls follow the shape of the dose curve; as a rule, active = well fitted inhibition curve with a large enough effect in the polarisation, with a control signal flat (not every such curve was filed as active); inconclusive = small, poorly fitted or top-dose-only effect, or effect the other way, or a change in a side signal; inactive = no such curve, though single readings can be large or run the other way; the % refers to the polarisation. Potencies beside an inconclusive call are fits to weak or partial responses and may not hold up. A note “side channel” means that the fit belongs to a control or component signal, not to the main read-out.

The chains behind the UniProt entries cited, without tags or fusion partners.
UniProt Q03164, whole entry, looked up: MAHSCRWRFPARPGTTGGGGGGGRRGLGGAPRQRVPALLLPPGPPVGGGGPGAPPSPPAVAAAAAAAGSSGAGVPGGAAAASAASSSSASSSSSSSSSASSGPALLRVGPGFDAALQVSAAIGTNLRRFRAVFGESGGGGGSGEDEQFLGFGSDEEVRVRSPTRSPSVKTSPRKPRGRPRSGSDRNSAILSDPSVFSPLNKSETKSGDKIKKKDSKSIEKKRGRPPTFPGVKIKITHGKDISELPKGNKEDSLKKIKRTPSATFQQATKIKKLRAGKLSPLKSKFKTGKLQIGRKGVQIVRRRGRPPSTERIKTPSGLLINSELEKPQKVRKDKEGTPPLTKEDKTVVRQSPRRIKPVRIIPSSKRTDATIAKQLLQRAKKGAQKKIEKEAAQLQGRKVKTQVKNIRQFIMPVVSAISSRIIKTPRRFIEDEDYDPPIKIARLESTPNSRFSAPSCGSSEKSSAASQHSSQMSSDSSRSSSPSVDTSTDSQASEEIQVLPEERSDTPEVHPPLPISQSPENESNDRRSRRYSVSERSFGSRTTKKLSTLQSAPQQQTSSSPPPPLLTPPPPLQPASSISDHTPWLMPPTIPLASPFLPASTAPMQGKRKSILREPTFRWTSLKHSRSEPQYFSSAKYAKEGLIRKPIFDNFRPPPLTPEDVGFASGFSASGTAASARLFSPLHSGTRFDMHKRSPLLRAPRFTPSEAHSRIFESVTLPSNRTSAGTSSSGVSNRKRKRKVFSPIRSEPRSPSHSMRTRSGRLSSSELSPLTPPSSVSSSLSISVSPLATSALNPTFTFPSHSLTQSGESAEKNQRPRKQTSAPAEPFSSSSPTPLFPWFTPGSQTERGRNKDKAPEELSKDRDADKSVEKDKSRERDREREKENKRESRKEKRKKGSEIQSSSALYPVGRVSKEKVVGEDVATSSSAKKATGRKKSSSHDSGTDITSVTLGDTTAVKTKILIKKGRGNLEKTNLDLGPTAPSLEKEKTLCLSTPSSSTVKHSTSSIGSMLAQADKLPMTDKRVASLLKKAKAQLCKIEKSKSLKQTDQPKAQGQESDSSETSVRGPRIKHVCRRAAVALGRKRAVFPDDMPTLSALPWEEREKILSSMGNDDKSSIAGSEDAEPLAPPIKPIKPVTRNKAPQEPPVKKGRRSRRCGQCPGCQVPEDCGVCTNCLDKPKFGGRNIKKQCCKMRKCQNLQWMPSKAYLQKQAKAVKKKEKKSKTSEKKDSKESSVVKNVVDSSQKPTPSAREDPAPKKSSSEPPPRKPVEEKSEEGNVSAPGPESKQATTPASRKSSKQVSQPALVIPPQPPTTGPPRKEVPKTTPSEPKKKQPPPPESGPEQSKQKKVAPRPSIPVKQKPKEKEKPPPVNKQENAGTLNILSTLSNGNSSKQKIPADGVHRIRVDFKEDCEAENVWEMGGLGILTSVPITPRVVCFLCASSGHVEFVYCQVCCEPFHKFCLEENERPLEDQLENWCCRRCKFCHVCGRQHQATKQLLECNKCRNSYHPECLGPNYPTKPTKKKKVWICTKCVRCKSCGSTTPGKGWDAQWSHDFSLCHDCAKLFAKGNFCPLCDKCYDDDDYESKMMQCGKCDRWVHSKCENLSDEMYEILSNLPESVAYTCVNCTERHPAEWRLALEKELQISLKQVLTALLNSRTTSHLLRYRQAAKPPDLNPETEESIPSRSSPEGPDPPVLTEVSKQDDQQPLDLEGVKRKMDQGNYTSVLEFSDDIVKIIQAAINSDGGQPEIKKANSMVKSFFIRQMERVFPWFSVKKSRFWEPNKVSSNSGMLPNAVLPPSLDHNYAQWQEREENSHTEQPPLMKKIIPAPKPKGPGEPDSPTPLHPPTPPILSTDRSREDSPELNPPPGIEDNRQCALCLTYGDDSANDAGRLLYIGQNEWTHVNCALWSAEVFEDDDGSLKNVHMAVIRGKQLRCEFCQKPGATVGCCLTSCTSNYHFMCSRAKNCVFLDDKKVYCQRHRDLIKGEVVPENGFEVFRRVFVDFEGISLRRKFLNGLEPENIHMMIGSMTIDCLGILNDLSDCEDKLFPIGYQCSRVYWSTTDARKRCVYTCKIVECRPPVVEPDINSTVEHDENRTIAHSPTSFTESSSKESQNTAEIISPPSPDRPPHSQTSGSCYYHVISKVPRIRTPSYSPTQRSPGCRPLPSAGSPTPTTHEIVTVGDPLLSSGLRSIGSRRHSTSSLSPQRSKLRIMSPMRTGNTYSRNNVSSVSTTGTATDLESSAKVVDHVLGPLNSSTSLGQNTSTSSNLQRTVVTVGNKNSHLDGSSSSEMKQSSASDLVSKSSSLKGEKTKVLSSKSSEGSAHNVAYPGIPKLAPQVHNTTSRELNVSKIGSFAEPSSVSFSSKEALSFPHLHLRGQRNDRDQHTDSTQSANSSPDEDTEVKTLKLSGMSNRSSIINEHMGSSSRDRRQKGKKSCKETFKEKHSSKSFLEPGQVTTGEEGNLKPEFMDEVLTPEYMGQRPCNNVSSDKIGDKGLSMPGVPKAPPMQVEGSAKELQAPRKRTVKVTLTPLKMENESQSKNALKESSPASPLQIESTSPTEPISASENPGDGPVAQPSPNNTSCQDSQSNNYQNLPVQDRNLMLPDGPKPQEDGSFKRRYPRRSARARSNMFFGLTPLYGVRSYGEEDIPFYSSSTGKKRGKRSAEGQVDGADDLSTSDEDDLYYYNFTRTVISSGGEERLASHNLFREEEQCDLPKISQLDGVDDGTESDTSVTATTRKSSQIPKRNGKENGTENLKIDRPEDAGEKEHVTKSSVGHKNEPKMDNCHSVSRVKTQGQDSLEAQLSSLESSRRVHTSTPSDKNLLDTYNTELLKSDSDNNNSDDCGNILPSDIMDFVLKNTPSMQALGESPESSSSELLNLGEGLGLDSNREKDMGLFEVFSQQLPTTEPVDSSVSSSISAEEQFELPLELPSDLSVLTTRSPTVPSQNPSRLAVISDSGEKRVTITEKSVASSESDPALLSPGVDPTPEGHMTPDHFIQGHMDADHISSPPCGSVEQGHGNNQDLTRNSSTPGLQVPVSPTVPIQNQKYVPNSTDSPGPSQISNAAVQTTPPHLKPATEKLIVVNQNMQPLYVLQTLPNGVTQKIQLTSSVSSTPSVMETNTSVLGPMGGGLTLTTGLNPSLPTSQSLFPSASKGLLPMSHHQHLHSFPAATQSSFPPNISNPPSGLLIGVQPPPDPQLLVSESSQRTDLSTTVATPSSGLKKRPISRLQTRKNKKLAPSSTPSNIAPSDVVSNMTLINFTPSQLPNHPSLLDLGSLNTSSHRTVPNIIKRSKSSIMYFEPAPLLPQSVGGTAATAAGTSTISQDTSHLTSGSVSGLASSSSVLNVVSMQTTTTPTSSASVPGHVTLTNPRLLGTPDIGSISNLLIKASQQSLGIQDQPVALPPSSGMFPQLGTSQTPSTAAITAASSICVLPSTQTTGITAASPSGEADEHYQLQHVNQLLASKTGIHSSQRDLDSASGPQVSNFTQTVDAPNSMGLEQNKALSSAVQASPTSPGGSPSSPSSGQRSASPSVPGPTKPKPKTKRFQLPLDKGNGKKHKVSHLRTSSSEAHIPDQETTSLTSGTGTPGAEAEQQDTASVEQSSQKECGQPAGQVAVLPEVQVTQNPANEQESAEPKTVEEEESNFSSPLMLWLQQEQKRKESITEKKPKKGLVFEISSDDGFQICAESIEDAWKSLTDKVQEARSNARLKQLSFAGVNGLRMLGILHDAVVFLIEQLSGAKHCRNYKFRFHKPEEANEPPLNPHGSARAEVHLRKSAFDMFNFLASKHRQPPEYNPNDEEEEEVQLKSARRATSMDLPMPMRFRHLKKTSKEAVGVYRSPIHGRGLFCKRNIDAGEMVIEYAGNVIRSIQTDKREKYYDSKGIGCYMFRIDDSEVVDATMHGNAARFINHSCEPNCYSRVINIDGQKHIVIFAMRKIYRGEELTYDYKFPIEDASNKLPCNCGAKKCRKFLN

Target: Histone-lysine N-methyltransferase 2A (Homo sapiens) (UniProt Q03164)
Experiment: qHTS Fluorescence Polarization Assay for Inhibitors of MLL CXXC domain - DNA interaction
Details: MLL-CXXC / FITC-HOXA9 DNA fluorescence polarization; activity change, negative = inhibition: at 115 µM (top of the series)
Source text: NIH Chemical Genomics Center [NCGC] NIH Molecular Libraries Probe Production centers Network [MLPCN] MLPCN Grant: DA027717-01A1 Assay Submitter (PI): John Bushweller NCGC Assay Overview: The MLL (Mixed Lineage Luekemia) gene is involved in chromosomal translocation that results in either acute lymphoid leukemia (ALL) or acute myeloid leukemia (AML). Chromasomal translocation of MLL gene is responsible for the fusion of N-terminal MLL to more than 60 different partner genes in frame. Many of the MLL partner genes contain transcription activation domains or function as transcriptional activators. Despite the heterogeneity of fusion partners, the N-terminus of MLL fusion proteins always consists of the N-terminal menin binding motif and the CXXC domain. The MLL-CXXC domain specifically recognizes unmethylated CpG sequences of the HOX-A gene. Disruption of the MLL-CXXC and HOX-A gene interaction leads to down regulation of HOX-A gene expression and may potentially reverse leukemogenesis. We have miniaturized and optimized an in-vitro assay to screen for inhibitors of the MLL-CXXC domain and HOX-A DNA interaction, which could have utility in MLL fusion leukemias.
The affinity purified MLL-CXXC domain, unlabeled HOX-A9 DNA strand, fluorescein (FLSN) labeled HOX-A9 DNA strand were kindly supplied by the laboratory of Dr. John Bushweller, University of Virginia. All reagents were stored in single use aliquots at -80C. Assay Reagents: Assay buffer: 50 mM TRIS-HCl pH 7.5, 50 mM NaCl, 1 mM DTT. Add 0.05% BSA prior to reaction setup. Assay Procedure: 1.Dispense 1 ul of a 7 uM MLL-CXXC solution prepared in assay buffer into column 1-48. 2.Transfer 23 nl of compounds and unlabeled HOX-A9 per well. 3.Incubate for 5 minutes at ambient. 4.Dispense 1ul of a 50 nM FLSN-HOX-A9 solution prepared in assay buffer into columns 1-48 5.Centrifuge for 30 seconds at 1000 RPM. 6.Incubate for 30 minutes at ambient. 7.Read using the Envision reader fluorescent polarization protocol.
Potency is read from the fitted curve at half-maximal effect.

Structure (SMILES)	activity change, negative = inhibition	Potency
CCCCCn1c(N)c(C(=O)NCc2cccs2)c2nc3ccccc3nc21	inactive: -4.67%	
C=CCN1C(=O)NC(=O)/C(=C/c2ccc(OC)c(CSc3ccccn3)c2)C1=O		inconclusive: 25.1 µM [inhibitor, partial curve]
O=c1[nH]c(=S)[nH]c(O)c1N=Nc1cc2c(cc1[N+](=O)[O-])OCO2		inconclusive: 35.5 µM [quencher, side channel, partial curve]
CN1[C@@H]2CC(OC(=O)[C@@H](CO)c3ccccc3)C[C@@H]1[C@H]1O[C@H]12 (stereo not given in full)	inactive: 2.62%	
CCOc1ccccc1N1C(=O)NC(=O)/C(=C/c2ccc3c4c(cccc24)CC3)C1=O		inconclusive: 31.6 µM [inhibitor, single point]
CCOC(=O)c1cc(CC)sc1/N=C/C1C(=O)NC(=S)NC1=O		inconclusive: 35.5 µM [fluorescent, side channel, partial curve]
CC(Cc1ccccc1)NCC(=O)Nc1cc(N(C)C)nc2ccccc12 (stereo not given)	inactive: -4.59%	
CC(C)c1ccc(N2C(=O)NC(=O)/C(=C/c3cnc(-c4ccccc4)nc3)C2=O)cc1		inconclusive: 44.7 µM [inhibitor, single point]
Cc1ccc(N2C(=O)/C(=C/c3ccc(CN(CCC#N)S(C)(=O)=O)o3)C(=O)NC2=S)cc1		inconclusive: 28.2 µM [fluorescent, partial curve]
NC(=O)c1ccc(C(=O)Nc2ccc([As](=O)(O)O)cc2)cc1		inconclusive: 63.1 µM [fluorescent, side channel, single point]
Nc1ccc2nonc2c1[N+](=O)[O-]		inconclusive: 31.6 µM [fluorescent, side channel, partial curve]
O=C1NC(=O)C(=Cc2cc(Cl)ccc2OCc2ccc(C(=O)O)cc2)C(=O)N1		inconclusive: 50.1 µM [inhibitor, single point]
N#CC(C#N)=Cc1ccc(N2CCCC2)cc1		inconclusive: 31.6 µM [fluorescent, side channel, partial curve]
COC(=O)C1=Nc2ccccc2/C1=C\c1c(O)n(-c2ccc(OC)cc2)c(=O)[nH]c1=O		inconclusive: 89.1 µM [inhibitor, single point]
O=[N+]([O-])c1ccc(-[n+]2c(-c3ccccc3)cc(-c3ccccc3)cc2-c2ccccc2)cc1		inconclusive: 14.1 µM [quencher, side channel, partial curve]
O=C1NC(=O)C(=Cc2ccccc2Oc2ccc(F)cc2)C(=O)N1	inactive: -4.37%	
CN1C(=O)NC(=O)/C(=C\C=C\c2ccccc2[N+](=O)[O-])C1=O		inconclusive: 89.1 µM [inhibitor, single point]
COc1cc(/C=C/[N+](=O)[O-])ccc1O	inactive: -5.1%	
C=CCN1C[C@H](C)N([C@H](c2ccc(C(=O)N(CC)CC)cc2)c2cccc(OC)c2)C[C@H]1C		inconclusive: 100 µM [fluorescent, side channel, single point]
CCOc1cc(C=C2C(=O)NC(=O)NC2=O)ccc1OS(=O)(=O)c1ccccc1		inconclusive: 3.55 µM [inhibitor, full curve]

5 compounds out of the list, sorted by molar mass, rising:
Structure (SMILES)	activity change, negative = inhibition	Potency
CCOC(=O)c1cc(CC)sc1/N=C/C1C(=O)NC(=S)NC1=O		inconclusive: 35.5 µM [fluorescent, side channel, partial curve]
CC(Cc1ccccc1)NCC(=O)Nc1cc(N(C)C)nc2ccccc12 (stereo not given)	inactive: -4.59%	
CCCCCn1c(N)c(C(=O)NCc2cccs2)c2nc3ccccc3nc21	inactive: -4.67%	
CC(C)c1ccc(N2C(=O)NC(=O)/C(=C/c3cnc(-c4ccccc4)nc3)C2=O)cc1		inconclusive: 44.7 µM [inhibitor, single point]
Cc1ccc(N2C(=O)/C(=C/c3ccc(CN(CCC#N)S(C)(=O)=O)o3)C(=O)NC2=S)cc1		inconclusive: 28.2 µM [fluorescent, partial curve]

The list goes on:

Structure (SMILES)	activity change, negative = inhibition	Potency
CN1CCN(c2cccc3c2C(=O)c2ccccc2C3=O)CC1		inconclusive: 44.7 µM [quencher, side channel, single point]
Cc1[nH]n(-c2ccccc2)c(=O)c1C(c1ccc([N+](=O)[O-])cc1)c1c(C)[nH]n(-c2ccccc2)c1=O	inactive: -4.9%	
COc1cc2c(cc1OC)-c1c(OC)c(OC)c(OC)c3ccnc(c13)C2=O		inconclusive: 11.2 µM [quencher, side channel, partial curve]
Nc1ccc2c(c1)Cc1ccccc1-2	inactive: 2.93%	
Cc1nn(C2CCOC(C)(C)C2)c2c1C(c1ccc(OC(C)C)cc1)SCC(=O)N2 (stereo not given)		inconclusive: 11.2 µM [inhibitor, single point]
CN(C(=O)CN1CC=C(c2ccccc2)CC1)c1c(N)n(Cc2ccccc2)c(=O)[nH]c1=O		inconclusive: 31.6 µM [fluorescent, side channel, partial curve]
N#CC(C#N)=Cc1ccc(-c2ccccc2F)o1		inconclusive: 31.6 µM [fluorescent, side channel, partial curve]
CCCCN1C(=O)/C(=C\c2ccco2)C(=O)N(CCc2ccccc2)C1=O		inconclusive: 31.6 µM [inhibitor, partial curve]
CCOC(=O)C1=Nc2ccccc2/C1=C\c1c(O)n(C)c(=O)n(C)c1=O		inconclusive: 50.1 µM [inhibitor, partial curve, poor fit]
CCOc1cccc(=NC2CCCCC2)c2c(C)n(C)c(C)c12		inconclusive: 39.8 µM [quencher, side channel, single point]
O=C1NC(=O)N(Cc2ccco2)C(=O)/C1=C/c1ccc(-c2cccc([N+](=O)[O-])c2)o1		inconclusive: 31.6 µM [inhibitor, single point]
CC(=O)Nc1cccc([As](=O)(c2cccc(NC(C)=O)c2)c2cccc(NC(C)=O)c2)c1	inactive: 0.407%	
CC(C)OCCCNC(=O)c1c(N)n(CC2CCCO2)c2nc3ccccc3nc12 (stereo not given)	inactive: -3.63%	
CCCC(=O)Nc1nnc(SCC(=O)NCc2ccc3c(c2)OCO3)s1		inconclusive: 7.08 µM [fluorescent, side channel, full curve]
CN1CCc2nc3sc(C(=O)NC4CC4)c(N)c3cc2C1		inconclusive: 28.2 µM [fluorescent, partial curve]
CCC(=NCCc1c[nH]c2ccccc12)c1c(O)n(-c2ccc(C)cc2)c(=O)[nH]c1=O		inconclusive: 15.8 µM [fluorescent, side channel, full curve, poor fit]
O=[N+]([O-])c1cc(O)c(O)c([N+](=O)[O-])c1		inconclusive: 44.7 µM [inhibitor, partial curve]
ClCC1CO1 (stereo not given)	inactive: -3.8%	
CCCC1(CCC)C(=O)NC(=NCc2ccccc2)NC1=O		inconclusive: 11.2 µM [fluorescent, side channel, single point]
Cc1cc(/C=C2\C(=O)NC(=O)N(c3cccc(F)c3)C2=O)c(C)n1-c1ccc(C(=O)O)c(Cl)c1		active: 12.6 µM

Structure (SMILES)	activity change, negative = inhibition	Potency
CSC[C@H](NC(=O)COc1cc2c(c3oc(=O)c(C)c(C)c13)CCC(C)(C)O2)C(=O)O		inconclusive: 3.55 µM [inhibitor, partial curve]
CC(=O)c1ccc2c(c1)OCO2	inactive: -0.181%	
O=C(c1ccco1)c1cn(Cc2ccccc2Cl)c2ccccc12	inactive: 21.1%	
CN1CCC(N(C)c2nc(-c3ccc([N+](=O)[O-])cc3)nc3ccccc23)CC1		inconclusive: 89.1 µM [quencher, side channel, single point]
CCOC(=O)c1c(/N=C/c2c(O)n(-c3ccccc3F)c(=S)[nH]c2=O)sc2c1CCCC2		inconclusive: 39.8 µM [fluorescent, side channel, partial curve]
OC(c1cccc(Cl)c1)(c1cccc(Cl)c1)C1CN2CCC1CC2 (stereo not given)	inactive: -7.31%	
Cc1c(Cl)cccc1N1C(=O)NC(=O)/C(=C\c2cc(C)n(-c3cccc(C(=O)O)c3C)c2C)C1=O		inconclusive: 39.8 µM [inhibitor, partial curve]
O=C(Cn1ncc2c3ccccc3n(Cc3cccc(Cl)c3)c2c1=O)N1CCC2(CC1)OCCO2		inconclusive: 63.1 µM [fluorescent, side channel, single point]
COc1c(/C=C2/C(=O)NC(=O)N(C)C2=O)c(CCN(C)C(=O)c2ccccc2)cc2c1OCO2		inconclusive: 31.6 µM [inhibitor, single point]
CCOC(=O)CSCCOc1ccc(C=C2C(=O)NC(=O)NC2=O)cc1OC		inconclusive: 14.1 µM [inhibitor, partial curve]
CN1C(=O)C(=Cc2ccc(N3CCCCCC3)o2)C(=O)N(C)C1=S		inconclusive: 35.5 µM [fluorescent, side channel, partial curve]
CCOc1ccc2c3c1O[C@H]1[C@@H](O)C=C[C@H]4[C@@H](C2)N(C)CC[C@@]341	inactive: -5.51%	
Cc1ccc(-n2c(O)c(/C=C/C=Nc3ccccc3)c(=O)[nH]c2=O)cc1		inconclusive: 31.6 µM [fluorescent, side channel, partial curve]
Cc1ccc(N2C(=O)NC(=O)/C(=C/c3cnn(-c4ccc(C)cc4)c3)C2=O)cc1		inconclusive: 5.62 µM [inhibitor, partial curve]
Cn1cccc1/C=C1/C(=O)NC(=O)N(Cc2ccccc2)C1=O		inconclusive: 35.5 µM [inhibitor, single point]
CC(C)c1ccc(N2C(=O)NC(=O)/C(=C\C=C\c3ccco3)C2=O)cc1		inconclusive: 44.7 µM [fluorescent, side channel, partial curve]
CC(=O)N1N=C(c2c(O)n(C)c(=O)n(C)c2=O)CC1c1ccccc1 (stereo not given)		inconclusive: 15.8 µM [quencher, side channel, single point]
CN(N=O)c1ccc(O)c(O)c1		inconclusive: 70.8 µM [inhibitor, partial curve, poor fit]
CCCCCCNC(=O)N[C@H](Cc1ccc(O)cc1)C(=O)NCCC[C@H]1CN2C(=NC[C@H]2CCC)N1CC1CCC1	inactive: -1.95%	
COc1ccc(N2C(=O)NC(=O)/C(=C\c3cn(C)c4ccccc34)C2=O)cc1		inconclusive: 14.1 µM [fluorescent, side channel, single point]
